Results as given in the supplement of paper PMC10849652.
The other results are listed elsewhere or left out.

Amino acid sequences for entries named in this document (tags omitted). A change or cut given only in a name is not applied to a line headed by its entry.
UniProt Q9BT81: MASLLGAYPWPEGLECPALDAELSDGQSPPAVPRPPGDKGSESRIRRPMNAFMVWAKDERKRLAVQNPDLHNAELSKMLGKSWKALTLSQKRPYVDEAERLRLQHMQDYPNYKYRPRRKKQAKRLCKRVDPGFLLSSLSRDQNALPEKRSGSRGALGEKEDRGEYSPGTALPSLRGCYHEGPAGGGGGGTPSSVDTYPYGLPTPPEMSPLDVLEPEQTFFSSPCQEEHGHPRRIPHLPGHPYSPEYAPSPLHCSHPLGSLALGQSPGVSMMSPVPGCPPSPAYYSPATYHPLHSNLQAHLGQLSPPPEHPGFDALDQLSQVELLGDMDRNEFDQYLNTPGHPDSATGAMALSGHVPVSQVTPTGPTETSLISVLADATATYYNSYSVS
UniProt Q969G3, whole entry, looked up: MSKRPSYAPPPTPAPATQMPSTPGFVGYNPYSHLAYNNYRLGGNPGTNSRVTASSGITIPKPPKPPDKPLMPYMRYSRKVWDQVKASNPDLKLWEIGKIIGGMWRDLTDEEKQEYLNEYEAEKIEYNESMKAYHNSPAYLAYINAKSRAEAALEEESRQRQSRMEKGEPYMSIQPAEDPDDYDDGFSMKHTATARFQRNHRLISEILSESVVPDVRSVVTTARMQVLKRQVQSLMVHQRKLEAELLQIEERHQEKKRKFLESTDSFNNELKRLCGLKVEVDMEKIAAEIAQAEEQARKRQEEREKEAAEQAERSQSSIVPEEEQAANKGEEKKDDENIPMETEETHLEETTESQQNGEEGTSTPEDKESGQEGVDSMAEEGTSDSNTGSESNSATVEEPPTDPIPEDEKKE
UniProt P62306, whole entry, looked up: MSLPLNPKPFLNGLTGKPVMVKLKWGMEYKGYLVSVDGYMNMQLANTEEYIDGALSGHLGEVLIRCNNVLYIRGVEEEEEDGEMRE
UniProt P09012, whole entry, looked up: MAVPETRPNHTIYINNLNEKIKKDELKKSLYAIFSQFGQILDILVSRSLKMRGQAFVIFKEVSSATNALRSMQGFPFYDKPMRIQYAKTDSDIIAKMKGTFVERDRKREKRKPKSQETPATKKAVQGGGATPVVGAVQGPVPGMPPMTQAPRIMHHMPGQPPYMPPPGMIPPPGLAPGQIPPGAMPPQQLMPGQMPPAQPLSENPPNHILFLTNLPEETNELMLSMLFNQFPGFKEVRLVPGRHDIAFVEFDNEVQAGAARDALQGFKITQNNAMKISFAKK
UniProt P62314, whole entry, looked up: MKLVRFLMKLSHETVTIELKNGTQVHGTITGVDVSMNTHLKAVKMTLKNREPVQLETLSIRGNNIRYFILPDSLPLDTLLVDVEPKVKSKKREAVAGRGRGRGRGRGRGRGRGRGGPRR
UniProt P52788: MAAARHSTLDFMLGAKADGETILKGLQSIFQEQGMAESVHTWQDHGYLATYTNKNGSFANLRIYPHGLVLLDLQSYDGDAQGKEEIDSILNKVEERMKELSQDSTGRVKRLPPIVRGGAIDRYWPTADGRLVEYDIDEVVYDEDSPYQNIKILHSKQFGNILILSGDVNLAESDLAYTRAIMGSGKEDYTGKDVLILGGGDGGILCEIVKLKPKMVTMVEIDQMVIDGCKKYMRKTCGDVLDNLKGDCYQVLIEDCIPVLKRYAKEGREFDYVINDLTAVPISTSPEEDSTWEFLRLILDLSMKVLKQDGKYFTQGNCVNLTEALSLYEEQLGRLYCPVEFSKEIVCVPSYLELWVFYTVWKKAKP
UniProt Q9Y5X2: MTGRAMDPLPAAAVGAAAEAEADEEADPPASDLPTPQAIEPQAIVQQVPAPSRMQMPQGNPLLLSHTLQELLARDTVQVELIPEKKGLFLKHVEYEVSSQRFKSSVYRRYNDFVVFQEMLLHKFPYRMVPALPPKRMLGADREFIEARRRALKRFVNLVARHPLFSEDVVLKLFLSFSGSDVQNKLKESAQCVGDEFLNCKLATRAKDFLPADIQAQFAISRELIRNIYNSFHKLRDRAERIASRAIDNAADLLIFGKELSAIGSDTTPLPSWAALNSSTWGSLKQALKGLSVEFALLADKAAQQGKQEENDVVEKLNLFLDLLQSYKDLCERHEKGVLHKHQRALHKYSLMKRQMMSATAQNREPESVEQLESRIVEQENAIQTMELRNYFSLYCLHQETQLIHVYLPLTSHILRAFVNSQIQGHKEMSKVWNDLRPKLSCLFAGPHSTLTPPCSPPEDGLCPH
UniProt Q16637, whole entry, looked up: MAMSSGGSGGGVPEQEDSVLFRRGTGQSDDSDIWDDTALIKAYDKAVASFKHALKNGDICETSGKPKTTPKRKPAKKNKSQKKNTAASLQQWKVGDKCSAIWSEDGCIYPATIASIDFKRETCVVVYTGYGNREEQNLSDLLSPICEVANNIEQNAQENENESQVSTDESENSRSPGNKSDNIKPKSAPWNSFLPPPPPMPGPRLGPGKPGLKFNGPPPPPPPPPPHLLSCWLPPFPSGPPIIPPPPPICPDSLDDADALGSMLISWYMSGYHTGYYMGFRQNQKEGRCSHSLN
UniProt Q96Q15: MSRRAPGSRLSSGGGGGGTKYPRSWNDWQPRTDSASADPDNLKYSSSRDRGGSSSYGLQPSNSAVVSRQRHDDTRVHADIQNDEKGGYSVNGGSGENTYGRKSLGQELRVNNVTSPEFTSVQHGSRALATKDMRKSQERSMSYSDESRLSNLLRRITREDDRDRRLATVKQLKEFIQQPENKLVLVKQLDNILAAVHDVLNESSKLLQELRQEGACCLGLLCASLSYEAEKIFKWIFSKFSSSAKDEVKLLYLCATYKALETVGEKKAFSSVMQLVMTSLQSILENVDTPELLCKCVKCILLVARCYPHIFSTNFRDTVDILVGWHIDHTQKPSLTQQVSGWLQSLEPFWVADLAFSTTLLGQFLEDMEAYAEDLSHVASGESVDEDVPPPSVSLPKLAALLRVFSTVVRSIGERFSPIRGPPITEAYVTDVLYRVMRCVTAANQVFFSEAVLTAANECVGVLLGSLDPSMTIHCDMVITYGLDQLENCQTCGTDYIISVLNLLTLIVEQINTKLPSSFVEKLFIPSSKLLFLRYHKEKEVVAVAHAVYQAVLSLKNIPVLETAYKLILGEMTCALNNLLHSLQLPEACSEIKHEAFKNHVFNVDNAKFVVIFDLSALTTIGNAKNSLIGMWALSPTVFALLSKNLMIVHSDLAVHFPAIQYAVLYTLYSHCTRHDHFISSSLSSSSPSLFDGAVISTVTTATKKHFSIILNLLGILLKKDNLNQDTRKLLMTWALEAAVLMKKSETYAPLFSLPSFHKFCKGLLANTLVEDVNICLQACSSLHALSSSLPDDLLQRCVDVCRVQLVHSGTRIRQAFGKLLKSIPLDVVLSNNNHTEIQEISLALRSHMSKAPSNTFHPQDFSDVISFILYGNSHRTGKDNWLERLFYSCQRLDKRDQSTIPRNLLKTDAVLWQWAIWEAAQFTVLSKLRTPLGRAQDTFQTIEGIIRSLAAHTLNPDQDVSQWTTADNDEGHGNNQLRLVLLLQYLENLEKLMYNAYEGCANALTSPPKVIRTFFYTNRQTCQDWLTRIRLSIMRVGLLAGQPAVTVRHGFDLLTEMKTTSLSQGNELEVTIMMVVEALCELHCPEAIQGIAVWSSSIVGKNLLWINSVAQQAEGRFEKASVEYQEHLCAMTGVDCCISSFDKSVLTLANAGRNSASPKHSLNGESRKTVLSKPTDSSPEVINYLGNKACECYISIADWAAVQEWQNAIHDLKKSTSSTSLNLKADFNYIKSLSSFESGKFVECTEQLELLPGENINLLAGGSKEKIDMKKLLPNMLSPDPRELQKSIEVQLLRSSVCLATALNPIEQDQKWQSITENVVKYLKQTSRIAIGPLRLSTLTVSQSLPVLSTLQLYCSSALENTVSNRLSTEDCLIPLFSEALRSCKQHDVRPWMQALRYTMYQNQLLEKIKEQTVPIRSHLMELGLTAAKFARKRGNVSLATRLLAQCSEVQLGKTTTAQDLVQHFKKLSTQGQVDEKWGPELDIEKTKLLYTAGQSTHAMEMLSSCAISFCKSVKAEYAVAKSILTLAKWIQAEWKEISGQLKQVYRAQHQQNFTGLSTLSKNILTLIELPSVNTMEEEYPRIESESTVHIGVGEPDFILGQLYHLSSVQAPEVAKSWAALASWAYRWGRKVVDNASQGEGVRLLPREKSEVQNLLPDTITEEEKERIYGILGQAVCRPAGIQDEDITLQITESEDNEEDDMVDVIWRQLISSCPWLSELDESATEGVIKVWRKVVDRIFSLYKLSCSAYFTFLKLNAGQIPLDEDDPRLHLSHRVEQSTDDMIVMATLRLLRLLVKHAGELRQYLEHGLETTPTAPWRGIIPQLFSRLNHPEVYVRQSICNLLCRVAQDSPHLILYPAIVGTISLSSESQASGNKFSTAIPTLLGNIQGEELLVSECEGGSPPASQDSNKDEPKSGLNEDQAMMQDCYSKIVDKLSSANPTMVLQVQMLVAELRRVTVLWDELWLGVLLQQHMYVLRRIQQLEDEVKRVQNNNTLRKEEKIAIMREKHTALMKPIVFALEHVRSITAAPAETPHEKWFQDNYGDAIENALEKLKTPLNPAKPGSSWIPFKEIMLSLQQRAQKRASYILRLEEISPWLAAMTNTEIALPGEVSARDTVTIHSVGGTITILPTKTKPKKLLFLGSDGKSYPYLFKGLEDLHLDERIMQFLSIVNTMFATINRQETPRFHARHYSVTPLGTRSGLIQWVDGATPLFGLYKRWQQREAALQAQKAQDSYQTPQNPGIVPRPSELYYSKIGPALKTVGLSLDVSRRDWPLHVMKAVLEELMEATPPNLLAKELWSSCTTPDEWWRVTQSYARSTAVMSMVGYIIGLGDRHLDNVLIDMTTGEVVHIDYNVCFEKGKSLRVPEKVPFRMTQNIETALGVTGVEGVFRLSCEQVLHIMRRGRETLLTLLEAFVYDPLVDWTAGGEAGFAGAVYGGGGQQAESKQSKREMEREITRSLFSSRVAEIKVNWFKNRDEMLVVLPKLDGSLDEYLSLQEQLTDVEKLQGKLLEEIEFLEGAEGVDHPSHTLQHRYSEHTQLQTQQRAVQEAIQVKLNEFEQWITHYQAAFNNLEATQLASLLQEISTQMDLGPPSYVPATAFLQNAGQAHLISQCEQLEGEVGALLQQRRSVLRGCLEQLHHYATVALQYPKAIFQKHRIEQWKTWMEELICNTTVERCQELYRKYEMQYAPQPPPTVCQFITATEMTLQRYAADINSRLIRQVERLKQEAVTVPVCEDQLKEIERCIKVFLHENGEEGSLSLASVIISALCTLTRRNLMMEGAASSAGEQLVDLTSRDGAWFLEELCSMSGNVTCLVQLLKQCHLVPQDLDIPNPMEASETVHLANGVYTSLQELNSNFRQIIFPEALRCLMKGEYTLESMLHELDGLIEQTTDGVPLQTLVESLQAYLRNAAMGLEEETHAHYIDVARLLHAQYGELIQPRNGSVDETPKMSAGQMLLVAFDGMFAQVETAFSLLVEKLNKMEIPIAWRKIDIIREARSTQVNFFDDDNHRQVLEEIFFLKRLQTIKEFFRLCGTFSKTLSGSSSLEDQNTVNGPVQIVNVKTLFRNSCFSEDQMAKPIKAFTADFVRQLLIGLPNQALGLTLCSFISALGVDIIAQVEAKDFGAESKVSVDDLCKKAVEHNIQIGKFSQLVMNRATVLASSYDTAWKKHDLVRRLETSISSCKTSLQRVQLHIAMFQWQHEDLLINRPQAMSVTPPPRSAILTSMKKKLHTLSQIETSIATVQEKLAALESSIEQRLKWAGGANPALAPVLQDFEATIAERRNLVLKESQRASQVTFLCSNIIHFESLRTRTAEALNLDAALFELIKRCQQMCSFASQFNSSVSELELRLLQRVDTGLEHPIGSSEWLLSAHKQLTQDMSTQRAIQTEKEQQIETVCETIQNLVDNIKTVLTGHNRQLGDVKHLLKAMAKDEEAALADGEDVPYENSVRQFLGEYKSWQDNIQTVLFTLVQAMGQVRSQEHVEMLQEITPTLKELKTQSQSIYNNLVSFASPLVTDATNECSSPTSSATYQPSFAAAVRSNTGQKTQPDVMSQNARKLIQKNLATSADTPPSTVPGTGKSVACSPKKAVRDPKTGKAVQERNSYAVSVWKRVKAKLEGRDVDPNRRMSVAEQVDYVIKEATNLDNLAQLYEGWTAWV
UniProt O95295: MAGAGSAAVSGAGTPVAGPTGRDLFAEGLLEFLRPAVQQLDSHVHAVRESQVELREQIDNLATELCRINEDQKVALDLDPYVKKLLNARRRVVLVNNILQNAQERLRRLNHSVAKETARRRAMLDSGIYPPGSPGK
UniProt O14745: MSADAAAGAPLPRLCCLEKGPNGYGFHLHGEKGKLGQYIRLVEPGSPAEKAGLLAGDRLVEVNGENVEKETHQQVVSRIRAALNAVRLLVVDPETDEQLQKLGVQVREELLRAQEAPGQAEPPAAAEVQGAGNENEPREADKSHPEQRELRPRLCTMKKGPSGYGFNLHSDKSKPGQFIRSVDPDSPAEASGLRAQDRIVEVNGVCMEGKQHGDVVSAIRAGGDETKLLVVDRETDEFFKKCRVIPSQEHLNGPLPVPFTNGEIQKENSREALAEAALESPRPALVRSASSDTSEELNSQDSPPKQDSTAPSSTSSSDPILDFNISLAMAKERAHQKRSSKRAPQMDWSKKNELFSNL

Columns and labels:
Experiment in all cases: log2 fold change, soluble protein after heating vs DMSO (PISA); higher = thermal stabilisation; K562 cells, 10 uM, 30 min; active = over 0.2 and 3.5 SD of the protein, either way, in both replicates (recomputed)
erlotinib = compound: C#Cc1cccc(Nc2ncnc3cc(OCCOC)c(OCCOC)cc23)c1 [erlotinib]
How it was run: (§1)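 Thermal stability values are relative to control samples and come from duplicates. They are expressed as log2 fold changes. For measurement, K562 cells (2×10^6 cells/mL) received 10 μM compound for 30 min, and aliquots were heated for 3 min over 48°C-58°C, pooled, and extracted at 4°C in PBS with 0.5% NP-40. Soluble protein, the supernatant after 21,000xg for 90 min, was quantified by TMTpro 16plex LC-MS/MS with equalised channel sums.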

[1] = compound: C/C(=N\NC(=O)C1=CC(=CC=C1)S(=O)(=O)N2CCOCC2)/C3=C(C=CC(=C3)Cl)O
How it was run: as §1

[2] = compound: C1=CC(=C(C=C1Cl)C2=NC3=NC=CN=C3C(=N2)NC4=CC=NC=C4)F
How it was run: as §1

[3] = compound: C1=CC(=CC=C1C2=NC3=C(N2)C=C(C=C3)C(=O)N)OC4=CC=C(C=C4)Cl
How it was run: as §1

[4] = compound: C1=CC2=C(C=CC(=C2)/C=C\3/C(=O)NC(=NCC4=CC=CS4)S3)N=C1
How it was run: as §1

[5] = compound: C1=CC2=NC=CN=C2C=C1/C=C/3\C(=O)NC(=O)S3
How it was run: as §1

[6] = compound: C1=CC=C(C=C1)C2=NC(=C(N2)C3=CC=NC=C3)C4=CC(=C(C=C4)Cl)O
How it was run: as §1

[7] = compound: C1=CC=C2C(=C1)C3=NNC4=CC=CC(=C43)C2=O
How it was run: as §1

[8] = compound: C1CCN(C1)C(=O)NC2=CC=CC(=C2)NC3=NC=C(C(=N3)NCCC4=CN=CN4)Br
How it was run: as §1

[9] = compound: C1CN(CCC1(CC2=CC=C(C=C2)Cl)N)C3=NC=NC4=C3C=CN4
How it was run: as §1

Target	log2 fold change (erlotinib)	log2 fold change [1]	log2 fold change [2]	log2 fold change [3]	log2 fold change [4]	log2 fold change [5]	log2 fold change [6]	log2 fold change [7]	log2 fold change [8]	log2 fold change [9]
SNX11 (UniProt Q9Y5W9)	inactive: 0.034	inactive: -0.029	inactive: 0.035	inactive: 0.037	inactive: -0.048	inactive: -0.028	inactive: -0.035	inactive: -0.042	inactive: -0.079	inactive: 0.071
SNRNP200 (UniProt O75643)	inactive: -0.08	inactive: 0.002	inactive: -0.058	inactive: 0.088	inactive: -0.005	inactive: 0.05	inactive: -0.064	inactive: -0.033	inactive: 0.014	inactive: -0.041
SMARCA5 (UniProt O60264)	inactive: 0.103	inactive: 0.044	inactive: -0.058	inactive: 0.005	inactive: -0.012	inactive: 0.078	inactive: 0.052	inactive: -0.103	inactive: -0.109	inactive: -0.227
SNX2 (UniProt O60749)	inactive: 0.043	inactive: 0.075	inactive: 0.002	inactive: 0.041	inactive: 0.067	inactive: -0.059	inactive: -0.057	inactive: -0.049	inactive: 0.006	inactive: -0.013
SOX7 isoform 2 (UniProt Q9BT81)	inactive: 0.281	inactive: -0.063	inactive: -0.332	inactive: 0.093	inactive: -0.219	inactive: -0.037	inactive: -0.032	inactive: -0.013	inactive: 0.053	inactive: -0.064
SMARCE1 (UniProt Q969G3)	inactive: 0.101	inactive: 0.04	inactive: 0.017	inactive: 0	inactive: 0.009	inactive: 0	inactive: 0.001	inactive: -0.057	inactive: 0.075	inactive: -0.127
SLC7A6 (UniProt Q92536)	inactive: -0.051	inactive: 0.232	inactive: -0.161	inactive: 0.026	inactive: -0.001	inactive: 0.034	inactive: 0.008	inactive: -0.033	inactive: -0.004	inactive: 0.135
SPAG9 (UniProt O60271)	inactive: 0.018	inactive: -0.025	inactive: 0.034	inactive: -0.016	inactive: 0.028	inactive: 0.039	inactive: -0.016	inactive: -0.012	inactive: 0.015	inactive: -0.009
SNRPF (UniProt P62306)	inactive: -0.079	inactive: -0.054	inactive: 0.011	inactive: 0.005	inactive: -0.181	inactive: 0.114	inactive: 0.073	inactive: -0.04	inactive: 0.073	inactive: -0.037
SNRPA (UniProt P09012)	inactive: -0.072	inactive: -0.122	inactive: -0.101	inactive: -0.006	inactive: -0.074	inactive: 0.058	inactive: -0.104	inactive: -0.046	inactive: 0.084	inactive: -0.072
SNAP29 (UniProt O95721)	inactive: 0.041	inactive: 0.002	inactive: 0.045	inactive: 0.01	inactive: -0.025	inactive: 0.048	inactive: -0.015	inactive: -0.007	inactive: 0.033	inactive: 0.038
SNRNP40 (UniProt Q96DI7)	inactive: -0.048	inactive: -0.012	inactive: -0.111	inactive: 0.037	inactive: -0.007	inactive: 0.049	inactive: -0.024	inactive: -0.005	inactive: 0	inactive: 0.008
SNRNP27 (UniProt Q8WVK2)	inactive: 0.026	inactive: -0.021	inactive: 0.052	inactive: 0.015	inactive: 0.015	inactive: 0.045	inactive: -0.165	inactive: -0.027	inactive: 0.061	inactive: 0.035
SNRPD1 (UniProt P62314)	inactive: -0.036	inactive: -0.085	inactive: -0.099	inactive: 0.018	inactive: -0.005	inactive: 0.039	inactive: -0.124	inactive: -0.005	inactive: 0.095	inactive: -0.042
SLIRP (UniProt Q9GZT3)	inactive: 0.019	inactive: 0.205	inactive: 0.27	inactive: -0.014	inactive: 0.067	inactive: 0.093	inactive: 0.023	inactive: -0.187	inactive: -0.013	inactive: -0.028
SNX9 (UniProt Q9Y5X1)	inactive: -0.005	inactive: 0.047	inactive: -0.004	inactive: -0.024	inactive: 0.004	inactive: 0.014	inactive: -0.006	inactive: -0.011	inactive: -0.01	inactive: 0.028
SMS (UniProt P52788)	inactive: -0.003	inactive: 0.017	inactive: 0.053	inactive: 0.008	inactive: 0.011	inactive: 0.03	inactive: 0.014	inactive: -0.017	inactive: -0.001	inactive: 0.048
SNX8 (UniProt Q9Y5X2)	inactive: 0.026	inactive: 0.039	inactive: 0.023	inactive: -0.005	inactive: -0.06	inactive: 0.006	inactive: -0.01	inactive: -0.011	inactive: 0.028	inactive: 0.031
SMC4 (UniProt Q9NTJ3)	inactive: 0.006	inactive: 0.044	inactive: -0.034	inactive: -0.027	inactive: -0.01	inactive: 0.014	inactive: 0.051	inactive: 0.018	inactive: -0.001	inactive: -0.071
SMARCC1 (UniProt Q92922)	inactive: 0.067	inactive: 0.04	inactive: -0.06	inactive: 0.088	inactive: 0.092	inactive: 0.025	inactive: 0.05	inactive: -0.051	inactive: -0.153	inactive: -0.168
SOS1 (UniProt Q07889)	inactive: -0.015	inactive: 0.072	inactive: -0.075	inactive: -0.027	inactive: 0.047	inactive: -0.107	inactive: 0.009	inactive: 0.022	inactive: 0.041	inactive: -0.006
SMN1 (UniProt Q16637)	inactive: -0.013	inactive: 0.015	inactive: -0.229	inactive: 0	inactive: -0.273	inactive: 0.004	inactive: 0.013	inactive: -0.199	inactive: -0.018	inactive: -0.067
SNCA (UniProt P37840)	inactive: 0.009	inactive: 0.024	inactive: 0.023	inactive: 0.007	inactive: 0.027	inactive: 0.019	inactive: 0.025	inactive: -0.014	inactive: -0.01	inactive: 0.086
SMG1 (UniProt Q96Q15)	inactive: 0.012	inactive: 0.101	inactive: 0.066	inactive: -0.012	inactive: -0.029	inactive: 0	inactive: -0.088	inactive: 0.049	inactive: -0.054	inactive: 0.066
SMIM8 (UniProt Q96KF7)	inactive: 0	inactive: 0.062	inactive: -0.156	inactive: -0.019	inactive: 0.047	inactive: 0.005	inactive: -0.036	inactive: -0.036	inactive: 0.015	inactive: 0.01
SNRPG (UniProt P62308)	inactive: 0.022	inactive: -0.009	inactive: -0.067	inactive: 0.018	inactive: 0.003	inactive: 0.031	inactive: -0.079	inactive: -0.027	inactive: -0.004	inactive: -0.019
SNAPIN (UniProt O95295)	inactive: 0.022	inactive: 0.022	inactive: 0.124	inactive: 0.052	inactive: 0.072	inactive: 0.049	inactive: -0.065	inactive: 0.054	inactive: -0.021	inactive: -0.049
SMCHD1 (UniProt A6NHR9)	inactive: 0.006	inactive: 0.171	inactive: -0.272	inactive: 0.043	inactive: 0.325	inactive: 0.046	inactive: -0.007	inactive: -0.422	inactive: -0.153	active: -0.564
SLC9A3R1 (UniProt O14745)	inactive: 0.011	inactive: -0.013	inactive: 0.021	inactive: -0.004	inactive: -0.003	inactive: -0.005	inactive: 0.009	inactive: 0.002	inactive: 0.014	inactive: 0.039
SNRPB isoform 3 (UniProt P14678)	inactive: -0.043	inactive: -0.021	inactive: -0.149	inactive: 0.044	inactive: -0.07	inactive: 0.068	inactive: 0.172	inactive: -0.046	inactive: 0.041	inactive: -0.024

Full records, quoted from the list. Order of values: log2 fold change (erlotinib)	log2 fold change [1]	log2 fold change [2]	log2 fold change [3]	log2 fold change [4]	log2 fold change [5]	log2 fold change [6]	log2 fold change [7]	log2 fold change [8]	log2 fold change [9]
SPAG9 (UniProt O60271) in the list: inactive: 0.018	inactive: -0.025	inactive: 0.034	inactive: -0.016	inactive: 0.028	inactive: 0.039	inactive: -0.016	inactive: -0.012	inactive: 0.015	inactive: -0.009
SNRPA (UniProt P09012) in the list: inactive: -0.072	inactive: -0.122	inactive: -0.101	inactive: -0.006	inactive: -0.074	inactive: 0.058	inactive: -0.104	inactive: -0.046	inactive: 0.084	inactive: -0.072
